Source: PMC10202959

What was measured:
[1] = biological target: T1, placenta growth factor PlGF-2 (human) (UniProt P49763); test: ELISA; by the methods: plates coated with 100 nM PlGF-2, AREG or NRTN, ECM proteins at increasing concentration in PBS-T with 0.1% BSA, detected with HRP-conjugated antibodies against ECM proteins; KD from a one site specific binding model (the legend of Fig. 1e tells the reverse orientation); both purified
T1 sequence: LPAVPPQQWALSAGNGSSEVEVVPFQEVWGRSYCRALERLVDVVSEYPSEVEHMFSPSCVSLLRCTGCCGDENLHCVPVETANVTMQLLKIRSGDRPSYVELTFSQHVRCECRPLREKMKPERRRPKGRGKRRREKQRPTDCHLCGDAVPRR

neurturin (NRTN) (human) [2] = biological target: T2, neurturin (NRTN) (human) (UniProt Q99748); test: ELISA; plates coated with 100 nM protein candidate or BSA, blocked with 1% BSA; 100 nM ECM protein in PBS-T with 0.1% BSA, 1 h at 37 °C; bound ECM protein detected with HRP-conjugated antibodies; fold change over BSA control; both purified
T2 sequence: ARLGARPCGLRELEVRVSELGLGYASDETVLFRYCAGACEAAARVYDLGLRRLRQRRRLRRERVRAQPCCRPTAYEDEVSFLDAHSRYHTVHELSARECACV

neurturin (NRTN) (human) [3] = biological target: T2, neurturin (NRTN) (human); test: ELISA; by the methods: plates coated with 100 nM PlGF-2, AREG or NRTN, ECM proteins at increasing concentration in PBS-T with 0.1% BSA, detected with HRP-conjugated antibodies against ECM proteins; KD from a one site specific binding model (the legend of Fig. 1e tells the reverse orientation); both purified

Row | binding [1] | binding (neurturin (NRTN) (human) [2]) | binding (neurturin (NRTN) (human) [3]) | Substance
1 | binds | – | – | human fibrinogen (complex)
2 | binds | binds | binds | human plasma fibronectin

No constants are given. Whether binding was seen depends on the method and setting. Binding can be weak; no strength is given.
